Earlier results in patent US20100239661A1, “PHARMACEUTICAL COMPOSITIONS OF URSODIOL” (priority 2006, published 2010).
The name of at least one read-out is uncertain.

SMILES: C[C@H](CCC(=O)O)[C@H]1CC[C@H]2[C@@H]3[C@@H](O)C[C@@H]4C[C@H](O)CC[C@]4(C)[C@H]3CC[C@]12C [Ursodiol, 3α,7β-dihydroxy-5β-cholan-24-oic acid]
- permeability (characterisation): high permeability
